Paper PMC3795638
Results are given in words; binding and its absence hold for the method and conditions named. In cells and extracts the contact can be indirect. Some binding calls cover weakened binding; strength is not graded here. Sequences can lack the tags named with a protein.

T1: FLAG-g14-3-3 (Giardia duodenalis) (UniProt E2RU97)
T1 sequence (chain, phosphorylated at Thr214; polyglycylated at Glu246 (up to 24 glycines)): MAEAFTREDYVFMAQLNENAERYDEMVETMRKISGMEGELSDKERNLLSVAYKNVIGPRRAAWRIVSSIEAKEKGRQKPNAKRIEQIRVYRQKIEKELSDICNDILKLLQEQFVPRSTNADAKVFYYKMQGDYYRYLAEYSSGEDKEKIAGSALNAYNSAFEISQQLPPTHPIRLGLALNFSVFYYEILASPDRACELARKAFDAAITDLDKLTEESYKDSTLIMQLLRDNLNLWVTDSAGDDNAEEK


Assays:
[1] = target: T1, FLAG-g14-3-3 (Giardia duodenalis); assay: co-IP; anti-FLAG M2 agarose incubated with Giardia trophozoite soluble proteins at 4°C for 3 h, washed with K-HT buffer, incubated with 2 mM A8Ap phosphopeptide, eluted with 200 µM FLAG peptide; blot with anti-FLAG and N14 anti-g14-3-3 serum; untransfected WB-C6 as control
[2] = target: 6xHis-g14-3-3 (Giardia duodenalis) (UniProt E2RU97); assay: cross-linking; whole fly lysates cross-linked with 3 mM BS3, resolved on 10% SDS-PAGE, blots probed with antibodies

Binder | binding [1] | binding [2]
endogenous g14-3-3 (protein, UniProt E2RU97 1-248, constitutively phosphorylated at Thr214 and polyglycylated at Glu246) MAEAFTREDYVFMAQLNENAERYDEMVETMRKISGMEGELSDKERNLLSVAYKNVIGPRRAAWRIVSSIEAKEKGRQKPNAKRIEQIRVYRQKIEKELSDICNDILKLLQEQFVPRSTNADAKVFYYKMQGDYYRYLAEYSSGEDKEKIAGSALNAYNSAFEISQQLPPTHPIRLGLALNFSVFYYEILASPDRACELARKAFDAAITDLDKLTEESYKDSTLIMQLLRDNLNLWVTDSAGDDNAEEK | binds | 
6xHis-g14-3-3 (protein, UniProt E2RU97 1-248) MAEAFTREDYVFMAQLNENAERYDEMVETMRKISGMEGELSDKERNLLSVAYKNVIGPRRAAWRIVSSIEAKEKGRQKPNAKRIEQIRVYRQKIEKELSDICNDILKLLQEQFVPRSTNADAKVFYYKMQGDYYRYLAEYSSGEDKEKIAGSALNAYNSAFEISQQLPPTHPIRLGLALNFSVFYYEILASPDRACELARKAFDAAITDLDKLTEESYKDSTLIMQLLRDNLNLWVTDSAGDDNAEEK |  | binds
